Test results as given in US6676980B2, “Method for preparing an olea europaea extract and method of use of the same” (Asac Compañia de Biotecnologia e Investigacion S.A., priority 1999, dated 2004).
Several values for one entry are separate records, joined by “and”; a condition that tells them apart may be missing. Identical values can stand only once. At least one structure is not confirmed: it was looked up by name or label, or the drawing left a doubt.

What was measured:
[1] = Oleuropein content of Olea europaea leaves in different drying conditions; format: physicochemical; settings: each table line one unnamed leaf sample
[2] = Stability of Oleuropein in dry leaves on exposure to sunlight; format: physicochemical, Olea europaea; settings: dry leaves with Oleuropein content of 3.5%; 12 hours of exposure to the sun at 20° C.

## C/C=C1/[C@H](O[C@@H]2O[C@H](CO)[C@@H](O)[C@H](O)[C@H]2O)OC=C(C(=O)OC)[C@H]1CC(=O)OCCc1ccc(O)c(O)c1 [Oleuropein]
[1]
  Oleuropein content, Drying at 35° C.: 4.0% and 5.3% and 3.5% and 3.6% and 5.8% and 9.5% and 8.3% and 4.7%
  Oleuropein content, Drying at 50° C.: 2.4% and 3.1% and 3.0% and 1.8% and 1.3% and 4.6% and 3.8%
  Oleuropein content, Drying at ambient temperature: 5.8% and 7.6% and 6.8% and 6.5% and 7.3% and 10.1% and 6.6%
[2]
  Oleuropein content after exposure to the sun: 0.82%
